The data set can be described thus: general procedure: solution-phase peptide synthesis; DCC/HOBt or DCC/HOObt.

Non-standard residues stand in square brackets, D forms with d. *: point of attachment. dPhe(4-Cl) = N[C@H](Cc1ccc(Cl)cc1)C(=O)O; Fmoc = O=C(OCC1c2ccccc2-c2ccccc21)*; OtBu = CC(C)(C)O*; tBu = CC(C)(C)*

On to Fmoc-Leu-Ser[Fuc(Ac3)]-Pro-Azagly-NH2, for which the step yield (coupling step) was determined as 69%.

Where the note is “coupling step”, “Ac-D-Nal-D-p-Cl-Phe-D-Pal-Ser-Tyr-D-Ser[Rha(Ac3)]-Leu-Ser[Rha(Ac3)]-Pro-D-Ala-NH2” gave a step yield of 74%.

With “Fmoc-D-Ser[Rha(Ac3)]-Leu-Ser[Rha(Ac3)]-Pro-Azagly-NH2”, under “coupling step”, the step yield turned out to be 78%.

As to “Fmoc-D-Ser[Rha(Ac3)]-Leu-Ser[Fuc(Ac3)]-Pro-Azagly-NH2”, the step yield (coupling step) stood at 77%.

Regarding “Ac-D-Nal-D-p-Cl-Phe-D-Pal-Ser-Tyr-D-Ser(Rha)-Leu-Ser(Fuc)-Pro-Azagly-NH2”, where the note is “late stage modification step”, the step yield came to 15%.

For the setting “late stage modification step”, H-Leu-Ser[Rha(Ac3)]-Pro-D-Ala-NH2 yielded a step yield of 90%.

“Ac-D-Nal-D-p-Cl-Phe-D-Pal-Ser-Tyr-D-Ser[Rha(Ac3)]-Leu-Ser[Rha(Ac3)]-Pro-Azagly-NH2”: the step yield (coupling step) is reported as 85%.

On to “Fmoc-D-Ser[Rha(Ac3)]-Leu-Ser[Rha(Ac3)]-Pro-D-Ala-NH2”, for which, where the note is “coupling step”, the step yield is listed as 73%.

As for “Ac-D-Nal-D-p-Cl-Phe-D-TrP-Ser-TYr-D-Ser[Rha(Ac3)]-Leu-Ser[Rha(Ac3)]-Pro-Azagly-NH2”, the step yield (coupling step) came to 59%.

For the setting “coupling step”, “Fmoc-D-Ser[Rha(Ac3)]-Leu-Ser[Xyl(Ac3)]-Pro-Azagly-NH2” had a step yield of 71%.

In the case of Fmoc-Leu-Ser[Xyl(Ac3)]-Pro-Azagly-NH2, for the setting “coupling step”, the step yield is 73%.

With Fmoc-Leu-Ser[Rha(Ac3)]-Pro-Azagly-NH2, the step yield (coupling step) came to 83%.

As to Fmoc-[dPhe(4-Cl)][dW]S(tBu)Y(tBu)-OtBu, the step yield (coupling step) is listed as 77.8%.

Consider “H-D-Ser[Rha(AC3)]-Leu-Ser[Xyl(Acs)]-Pro-Azagly-NH2”, for which, for the setting “late stage modification step”, the step yield is recorded as 90%.

As for “Ac-D-Nal-D-p-Cl-Phe-D-Pal-Ser-Tyr-D-Ser[Rha(Ac3)]-Leu-Ser[Fuc(Acs)]-Pro-Azagly-NH2”, the step yield (coupling step) amounted to 74%.

With H-Leu-Ser[Xyl(Ac3)]-Pro-Azagly-NH2, under “late stage modification step”, the step yield is 86%.

Substance “H-D-Ser[Rha(Ac3)]-Leu-Ser[Fuc(Ac3)]-Pro-Azagly-NH2” yielded a step yield (late stage modification step) of 90%.

In the case of “Ac-D-Nal-D-p-Cl-Phe-D-Trp-Ser-Tyr-D-Ser(Rha)-Leu-Ser(Rha)-Pro-Azagly-NH2”, the step yield (late stage modification step) was 27%.

“Ac-D-Nal-D-p-Cl-Phe-D-Pal-Ser-Tyr-D-Ser(Rha)-Leu-Ser(Rha)-Pro-D-Ala-NH2” gave a step yield (late stage modification step) of 20%.

On to “H-D-Ser[Rha(Ac3)]-Leu-Ser[Rha(Ac3)]-Pro-D-Ala-NH2”, for which the step yield (late stage modification step) was 91%.

For Fmoc-Leu-Ser[Rha(Ac3)]-Pro-D-Ala-NH2, the step yield (coupling step) worked out at 66%.

Turning to H-Leu-Ser[Rha(Ac3)]-Pro-AzaglY-NH2, the step yield (late stage modification step) was determined as 87%.

Take H-Leu-Ser[Fuc(Ac3)]-Pro-Azagly-NH2: the step yield (late stage modification step) was determined as 88%.

As for “Ac-D-Nal-D-p-Cl-Phe-D-Pal-Ser-Tyr-D-Ser(Rha)-Leu-Ser(Rha)-Pro-AzaglY-NH2”, the step yield (late stage modification step) came out at 22%.

Under “late stage modification step”, “H-D-Ser[Rha(Ac3)]-Leu-Ser[Rha(Ac3)]-Pro-Azagly-NH2” came in with a step yield of 89%.

Consider “Ac-D-Nal-D-p-Cl-Phe-D-Trp-Ser(tBu)-Tyr(tBu)-OtBu”, for which, under “coupling step”, the step yield was determined as 59%.

Consider H-[dPhe(4-Cl)][dW]S(tBu)Y(tBu)-OtBu, for which the step yield (late stage modification step) is on record as 104.9%.

The values are drawn from patent publication US5434138A (Hoechst Aktiengesellschaft, priority 1990, dated 1995).
